Experimental data as given in PubChem BioAssay AID504467 (National Center for Advancing Translational Sciences (NCATS), 2011).
About 7,700 (2.3%) of roughly 330,000 compounds were called active. The shares of active, inactive and inconclusive entries below differ from those in the screen. Calls follow the shape of the dose curve; as a rule, active = well fitted inhibition curve with a large enough effect; inconclusive = small, poorly fitted or top-dose-only effect, or effect the other way; inactive = flat fitted curve, though single readings scatter. Potencies beside an inconclusive call are fits to weak or partial responses and may not hold up.

Test: qHTS screen for small molecules that inhibit ELG1-dependent DNA repair in human embryonic kidney (HEK293T) cells expressing luciferase-tagged ELG1; also: nearly all actives have a fitted effect of over 55% in size
Conditions: HEK293T ELG1-luciferase reporter, luminescence, 16 h, DNA damage induced by 5-fluorouridine; activity change, negative = inhibition: at 46.1 µM (top of the series)
Summary of the method: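 Luminescence from the luciferase reporter, measured 30 min after ONE-Glo reagent at room temperature, was the read-out. Beforehand, 2,000 cells per well were exposed for 16 hr at 37 °C to 5-fluorouridine together with compound or vehicle.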
% is scaled to controls: 0 for no effect and ±100 for the full control effect; potency is read from the fitted curve at half-maximal effect.

SMILES | activity change, negative = inhibition | Potency
COc1cccc(/C=C/C(=O)OCC(=O)c2ccc(C)c(C)c2)c1OC | inactive: 6.86% | –
CC(C)(C)C1CCc2c(sc3c2C(=O)NC(c2ccco2)N3)C1 (stereo unspecified) | – | inconclusive: 2.91 µM [activator, full curve]
c1csc(-c2nc3ccccc3s2)c1 | – | inconclusive: 14.6 µM [activator, partial curve]
CCc1noc(C)c1C(=O)OCC(=O)Nc1nc(-c2ccc(F)c(F)c2)cs1 | – | inconclusive: 29.1 µM [inhibitor, single point]
Cc1cc(C(=O)CC#N)c(C)n1-c1ccc(OC(F)F)cc1 | – | inconclusive: 11.2 µM [inhibitor, partial curve, poor fit]
O=C1NC[C@H](c2ccccc2)OC(=O)[C@H](Cc2ccc(F)cc2)C/C=C\C[C@H]1CC(=O)N(CCO)Cc1ccccc1 | – | active: 1.3 µM
Cc1ccc(NC(=O)CN2C(=O)C(=O)N(C3CCCC3)C2=O)cc1Cl | – | inconclusive: 35.5 µM [activator, single point]
O=c1ccc(/C=C/c2ccccc2)nn1Cc1ccc(F)cc1 | inactive: -25.1% | –
CC(C)CCN(CCC(C)C)C(CO)(CO)CO | inactive: -16.3% | –
Cn1nnnc1SCC(=O)Nc1ccccc1-c1ccccc1 | – | inconclusive: 29.1 µM [activator, single point]
COc1ccc(Cn2c(SCC#N)nc3ccc(N4CCOCC4)cc3c2=O)cc1 | – | inconclusive: 3.66 µM [activator, single point]
COc1cc(NC(=O)c2cc(OC)c(OC)c(OC)c2)ccc1NC(=O)c1cccs1 | – | inconclusive: 32.6 µM [inhibitor, single point]
CCOc1ccccc1CN1CCN(CC2=Cc3cc(OC)ccc3OC2)CC1CCO (stereo unspecified) | – | inconclusive: 14.6 µM [inhibitor, partial curve]
O=C(Nc1cccnc1)/C(N=Nc1cccnc1)=C(\O)c1ccccc1 | – | inconclusive: 4.61 µM [inhibitor, partial curve]
CC(C)(C)C(=O)COC(=O)c1cc2ccccc2cc1O | – | inconclusive: 20.6 µM [activator, single point]
Cc1[nH]nc2c1C(c1ccc(F)cc1)C(C#N)=C(N)O2 (stereo unspecified) | inactive: 6.54% | –
Cc1ccc(N2C(=O)N(CC(=O)Nc3cc(C)cc(C)c3)C(=O)C2C)cc1 (stereo unspecified) | – | inconclusive: 29.1 µM [inhibitor, single point]
Cc1ccc2c(C)c(C(=O)N3CCCCC3CO)oc2c1C (stereo unspecified) | – | inconclusive: 16.4 µM [activator, partial curve]
O=S(=O)(c1ccccc1)N1CCN(c2nc3ccccc3s2)CC1 | – | inconclusive: 5.8 µM [activator, full curve]
Cn1c(NC(=O)c2ccc(Br)o2)cc(=O)n(C)c1=O | inactive: 2.32% | –
Cc1sc2ncnc(Sc3nnnn3-c3ccc(Cl)cc3)c2c1C | – | inconclusive: 29.1 µM [inhibitor, single point]
Cc1cc(NC(=O)CSc2ncnc3sccc23)no1 | inactive: -5.93% | –
CC(=O)c1sc(-c2ccccc2)nc1C | – | inconclusive: 16.4 µM [activator, single point]
COc1cccc(CC(NC(C)=O)C(=O)NC2CCN(c3c(Cc4ccccc4)c(C)nc4ncnn34)CC2)c1OC (stereo unspecified) | – | inconclusive: 16.4 µM [inhibitor, partial curve, poor fit]

SMILES | activity change, negative = inhibition | Potency
COC(=O)c1c(NC(=S)Nc2cc(OC)c(Cl)cc2OC)sc2c1CCCCC2 | inactive: 17.4% | –
OC1CCCN(c2c3c(nc4cc(-c5cccc(F)c5)nn24)CCCC3)C1 (stereo unspecified) | – | inconclusive: 29.1 µM [inhibitor, single point]
COc1ccc(NC(=O)c2ccc(C)o2)c([N+](=O)[O-])c1 | – | inconclusive: 6.51 µM [activator, partial curve]
CCOC(=O)C1CCN(c2ncnc3nc[nH]c23)CC1 | inactive: 3.99% | –
CCN(CC)CCCSc1nc2ccccc2s1 | – | inconclusive: 16.4 µM [activator, partial curve]
CC1=NNC(=O)C1CCC(=O)N/N=C(\C)c1ccc(Cl)cc1 (stereo unspecified) | – | inconclusive: 16.4 µM [inhibitor, single point]
Cc1ccc(-c2ccc(/C=N/NC(=O)c3ccccc3O)o2)cc1 | – | inconclusive: 13 µM [inhibitor, partial curve, poor fit]
CCc1cc(S(=O)(=O)N2CCN(C(=O)c3ccco3)CC2)ccc1OC | – | inconclusive: 10.3 µM [inhibitor, partial curve]
O=C(NCCOc1ccccc1F)c1ccccc1SCc1ccc(F)cc1 | – | inconclusive: 16.4 µM [inhibitor, partial curve, poor fit]
O=C(O)CCSCC(=O)Nc1c(C(=O)C2CC2)oc2ccccc12 | – | inconclusive: 29.1 µM [activator, single point]
Cc1c(Cl)cccc1NC(=S)NCCc1ccc(C(F)(F)F)cc1 | – | inconclusive: 29.1 µM [inhibitor, single point]
COc1ccccc1N(CC(O)CN1CCOCC1)S(=O)(=O)c1ccccc1 (stereo unspecified) | inactive: -1.3% | –
CC1CCN(S(=O)(=O)c2csc(C(=O)Nc3ccccc3)c2)CC1 | – | inconclusive: 20.6 µM [inhibitor, partial curve]
Cc1cc(NC(=O)c2cc(C3CC3)on2)no1 | – | inconclusive: 23.1 µM [activator, partial curve]
COc1ccc(OCCC(=O)NCc2ccccc2)cc1 | inactive: 20% | –
CCn1c(NCc2ccccn2)nc2ccccc21 | – | inconclusive: 18.4 µM [activator, single point]
O=C(N[C@@H]1c2ccccc2CC[C@@H]1OCc1ccccc1)c1ccc(-c2ccccc2)cc1 | inactive: 2.36% | –
COc1ccc2ccccc2c1C(=O)/C=C\c1ccoc1 | inactive: -2.39% | –
CCSc1nnc(NC(=O)CSc2nccn2-c2cccc(C)c2)s1 | inactive: -0.883% | –
O=C(NCCc1ccc(Cl)cc1)c1cnc2n(c1=O)CCS2 | – | inconclusive: 23.1 µM [activator, partial curve]
COCCN(CCOC)S(=O)(=O)c1ccc(C(=O)Nc2nc(-c3ccncc3)cs2)cc1 | – | inconclusive: 1.16 µM [inhibitor, partial curve]
COc1cc2ccccc2cc1C(=O)Nc1ccc2oc(=O)ccc2c1 | – | inconclusive: 20.6 µM [activator, single point]
CCC(Sc1nc(C)cc(C)n1)C(=O)Nc1nccs1 (stereo unspecified) | – | active: 18.3 µM
CC(C)n1ncc2c(C(=O)N3CCN(Cc4ccc(Br)s4)CC3)cc(C3CC3)nc21 | – | inconclusive: 14.6 µM [inhibitor, single point]

Whole records from above. Values in the order: activity change, negative = inhibition | Potency
COc1ccccc1N(CC(O)CN1CCOCC1)S(=O)(=O)c1ccccc1 (stereo unspecified) is entered as inactive: -1.3% | –
COC(=O)c1c(NC(=S)Nc2cc(OC)c(Cl)cc2OC)sc2c1CCCCC2 is entered as inactive: 17.4% | –

The listing continues:

SMILES | activity change, negative = inhibition | Potency
COc1cc(/C=C/[N+](=O)[O-])ccc1OC(=O)c1cc2ccccc2oc1=O | – | inconclusive: 14.6 µM [activator, partial curve, poor fit]
CC(=O)Nc1cccc(NC(=S)Nc2cccc3ccccc23)c1 | – | inconclusive: 23.1 µM [activator, partial curve, poor fit]
O=C(Nc1c[nH]c(=O)[nH]c1=O)c1cccc([N+](=O)[O-])c1 | inactive: -14.6% | –
Cc1ccccc1CN(C)C(=O)COC(=O)CSc1ccc([N+](=O)[O-])cc1 | inactive: -2.2% | –
COCCn1nnnc1CN(Cc1cc2cc(OC)c(OC)cc2[nH]c1=O)C1CCCC1 | – | inconclusive: 32.6 µM [inhibitor, single point]
O=C(c1ccc(F)cc1)N1CCN(C(=O)c2ccc([N+](=O)[O-])cc2)CC1 | inactive: 12.4% | –
CC(=O)N1c2ccc(S(=O)(=O)N3CCCC3C(=O)NCc3ccccc3Cl)cc2CC1C (stereo unspecified) | inactive: -2.44% | –
CCSC1=NCCN1C(=O)c1ccc(S(=O)(=O)N(C)C)cc1 | inactive: -2% | –
CC1CCCCN1C(=O)c1cc(-c2ccc3c(c2)OCO3)on1 (stereo unspecified) | – | inconclusive: 2.59 µM [activator, partial curve]
CC(C)CCOCC(=O)Nc1cccc(C(=O)O)c1 | – | inconclusive: 1.03 µM [activator, single point]
Cc1nn(-c2cc(N3CCCCC3)ccc2[N+](=O)[O-])c(=O)c2ccccc12 | – | inconclusive: 23.1 µM [inhibitor, single point]
O=C(NCCCN1CCN(c2ccccc2)CC1)C1CCCN(c2ncnc3c2nc2n3CCCCC2)C1 (stereo unspecified) | – | inconclusive: 8.2 µM [inhibitor, partial curve, poor fit]
CCn1c(SCC(=O)Nc2ccccc2)nnc1-c1cccs1 | inactive: -7.45% | –
O=C(Cc1ccccc1)c1c[nH]c(C(=O)NCc2ccncc2)c1 | inactive: -5.56% | –
O=C(NCc1ccccc1)C1=C[C@@H](c2coc3ccccc3c2=O)C[C@@H](OCc2ccc(CO)cc2)O1 | – | inconclusive: 14.6 µM [inhibitor, single point]
O=C1/C(=C/c2ccccn2)SC(=S)N1NS(=O)(=O)c1ccccc1 | inactive: -5.64% | –
N#Cc1c2n(c3c(=O)[nH]cnc13)CCCC2 | – | inconclusive: 20.6 µM [inhibitor, single point]
Cc1ccc(C(=O)N/N=C/c2c[nH]c3ccccc23)o1 | – | inconclusive: 16.4 µM [activator, partial curve]
COc1cc2c(cc1NC(=O)c1cc(-c3ccncc3)nc3ccc(C)cc13)oc1ccccc12 | inactive: -4.3% | –
COC(=O)c1ccc(S(=O)(=O)NCCSc2nnc3c4ccccc4n(C)c3n2)cc1 | – | inconclusive: 29.1 µM [inhibitor, single point]
Cn1c(CC(=O)Nc2ccccc2)nnc1SCC(=O)Nc1ccc(N2CCOCC2)cc1 | – | inconclusive: 16.4 µM [activator, partial curve]
CCOc1ccccc1NC(=O)c1ccccc1-c1nc(-c2ccccc2)no1 | – | inconclusive: 29.1 µM [inhibitor, single point]
Cc1ccc(NC(=O)C2CCCN2S(=O)(=O)c2ccc3c(c2)n(C)c(=O)c(=O)n3C)cc1 (stereo unspecified) | – | inconclusive: 23.1 µM [activator, single point]

Three entries already listed, ordered by number of heavy atoms, low to high.
SMILES | activity change, negative = inhibition | Potency
CC(C)CCOCC(=O)Nc1cccc(C(=O)O)c1 | – | inconclusive: 1.03 µM [activator, single point]
CCSC1=NCCN1C(=O)c1ccc(S(=O)(=O)N(C)C)cc1 | inactive: -2% | –
COCCn1nnnc1CN(Cc1cc2cc(OC)c(OC)cc2[nH]c1=O)C1CCCC1 | – | inconclusive: 32.6 µM [inhibitor, single point]
